From US20030022853A1 come the findings set out here.

Chains of the proteins cited; added tags and fusions are not shown.
UniProt P06492: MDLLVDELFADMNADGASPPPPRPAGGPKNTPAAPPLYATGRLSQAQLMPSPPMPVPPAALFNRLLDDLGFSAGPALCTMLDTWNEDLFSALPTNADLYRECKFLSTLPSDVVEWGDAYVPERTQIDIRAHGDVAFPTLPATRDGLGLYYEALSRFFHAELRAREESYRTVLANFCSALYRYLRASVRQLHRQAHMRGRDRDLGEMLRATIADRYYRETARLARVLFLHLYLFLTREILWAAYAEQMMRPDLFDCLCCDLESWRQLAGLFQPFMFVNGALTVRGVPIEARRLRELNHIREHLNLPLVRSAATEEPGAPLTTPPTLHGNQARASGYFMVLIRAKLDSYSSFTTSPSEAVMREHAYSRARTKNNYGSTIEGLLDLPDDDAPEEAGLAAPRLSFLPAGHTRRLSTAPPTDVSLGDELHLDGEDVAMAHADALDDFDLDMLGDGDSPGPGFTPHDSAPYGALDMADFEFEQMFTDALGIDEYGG

These are yes or no findings as the source states them, for the method shown. Some entries that bind do so weakly or less than the wild type.

The target in assay [1] is Oct-1 and HCF from HeLa cell nuclear extract, Oct-1 bound to … DNA (human) (UniProt P14859). The experiment in a line: laser fluorescence quenching assay, VP16 added to HeLa nuclear extract and JD41F/42F.
For assay [2] the target is unchanged. In words: laser fluorescence quenching assay, VP16 added to HeLa nuclear extract and JD45F/46F.

In the case of “herpes simplex virus type 1 (HSV-1) protein VP16 (HSV-1 virion extract containing 80% pure VP16) (from UniProt P06492 1-490)”, the binding entry in assay [1] and in assay [2] was “binds” in each case.
